Source: patent US20160368974A1 (UMC UTRECHT HOLDING B V, published 2016)
Results are given in words; binding and its absence hold for the method and conditions named. Some entries that bind do so weakly or less than the wild type. One block for each binder: values may come before it. Ends that are not written are not given here.

Molecular target: immunizing peptide … (SEQ ID NO: 27)
Assay: PEPSCAN ELISA on overlapping 7 to 14-mer linear and CLIPS peptides based on SEQ ID NO:27

- binding: binds
B1: antibody 33E3.10 (antibody, V domains shown)
VH: EVKLVESGGGLVKPGGSLKLSCAASGFTFSNSAMTWVRQTPEKRLEWVASISGGGTTYYPDSVKGRFTISRDNARNILYLQMSSLRSEDTAIYYCARSHYWGQGTTLTVSS
VL: DIVMTQSQKFMSTSIGDRVSVTCKASQNVVTNVAWYQQKPGQSPKALIYSASYRYSGVPDRFTGSGSGTDFTLTISNVQSEDLAEYFCQQYNSYPYTFGGGTKLEIKR

- binding: binds
B2: antibody 17G8.72 (antibody, V domains shown)
VH: DVQLQESGPDLVKPSQSLSLTCTVTGYSIASGYSWHWIRQFPGNKLEWMGYIHFSGSANYNPSLKSRISITRDTSKNQFFLQLNSVTTEDTATYYCASEARGYFDYWGQGTTLTVSS
VL: DVLMTQTPLSLPVSLGDQASISCRSSQSIVRSNGNTYLTWYLQKPGQSPKLLIYKVSNRFSGVPDRFSGSGSGTDFTLKISRVEAEDLGVYFCFQGSHVPPTFGSGTKLEIKR
notes: Monoclonal antibody against the EDA domain of fibronectin-EDA; also called 17G8.7VL
